Data published in article PMC10895845.
Results are given in words; binding and its absence hold for the method and conditions named. In cells and extracts the contact can be indirect. Some results given as binding are weak or reduced against the parent protein; the word gives no strength. Where a sequence is shown, tags or fusion partners need not be part of it.

Protein sequences, listed by entry. Tags and fused reporters are not part of them.
UniProt Q8WUM4: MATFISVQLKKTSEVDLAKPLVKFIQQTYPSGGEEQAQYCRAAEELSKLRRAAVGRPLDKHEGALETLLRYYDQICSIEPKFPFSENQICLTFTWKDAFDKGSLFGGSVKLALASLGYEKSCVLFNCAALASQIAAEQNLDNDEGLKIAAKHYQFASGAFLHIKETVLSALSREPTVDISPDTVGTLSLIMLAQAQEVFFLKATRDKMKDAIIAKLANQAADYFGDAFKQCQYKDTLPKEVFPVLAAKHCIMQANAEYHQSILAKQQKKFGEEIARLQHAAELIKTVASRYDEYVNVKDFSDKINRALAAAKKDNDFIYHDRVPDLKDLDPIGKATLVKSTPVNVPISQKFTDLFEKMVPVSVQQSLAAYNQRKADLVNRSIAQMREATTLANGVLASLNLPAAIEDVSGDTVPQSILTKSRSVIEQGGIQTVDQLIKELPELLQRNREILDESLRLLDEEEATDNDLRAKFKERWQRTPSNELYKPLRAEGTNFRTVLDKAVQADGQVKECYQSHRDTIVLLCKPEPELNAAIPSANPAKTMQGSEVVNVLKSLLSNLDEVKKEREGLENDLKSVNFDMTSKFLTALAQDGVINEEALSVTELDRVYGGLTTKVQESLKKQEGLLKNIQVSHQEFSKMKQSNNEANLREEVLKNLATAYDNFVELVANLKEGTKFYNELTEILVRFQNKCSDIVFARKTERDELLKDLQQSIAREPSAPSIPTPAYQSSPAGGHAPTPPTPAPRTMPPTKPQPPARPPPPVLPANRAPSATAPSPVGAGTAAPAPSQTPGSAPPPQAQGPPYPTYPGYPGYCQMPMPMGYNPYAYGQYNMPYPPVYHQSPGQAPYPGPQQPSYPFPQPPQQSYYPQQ

Molecular target: His-ALIX (UniProt Q8WUM4)
Assay: co-IP; cells (HEK293T by the text, SCs by the legend) transfected with His-ALIX and WT-VMP1 or MT-VMP1; immunoprecipitation with anti-His antibody, western blot

| binding | Binder |
| --- | --- |
| binds | WT-VMP1-flag (flag-tagged wild-type Vacuole Membrane Protein 1) (protein, UniProt Q96GC9 1-406, S-palmitoylated at cysteine 263 and 278 (in cells, by ZDHHC3)) MAENGKNCDQRRVAMNKEHHNGNFTDPSSVNEKKRREREERQNIVLWRQPLITLQYFSLEILVILKEWTSKLWHRQSIVVSFLLLLAVLIATYYVEGVHQQYVQRIEKQFLLYAYWIGLGILSSVGLGTGLHTFLLYLGPHIASVTLAAYECNSVNFPEPPYPDQIICPDEEGTEGTISLWSIISKVRIEACMWGIGTAIGELPPYFMARAARLSGAEPDDEEYQEFEEMLEHAESAQDFASRAKLAVQKLVQKVGFFGILACASIPNPLFDLAGITCGHFLVPFWTFFGATLIGKAIIKMHIQKIFVIITFSKHIVEQMVAFIGAVPGIGPSLQKPFQEYLEAQRQKLHHKSEMGTPQGENWLSWMFEKLVVVMVCYFILSIINSMAQSYAKRIQQRLNSEEKTK |
| no binding | MT-VMP1-flag (VMP1 C263, 278S palmitoylation-site mutant, flag-tagged) (protein, UniProt Q96GC9 1-406) MAENGKNCDQRRVAMNKEHHNGNFTDPSSVNEKKRREREERQNIVLWRQPLITLQYFSLEILVILKEWTSKLWHRQSIVVSFLLLLAVLIATYYVEGVHQQYVQRIEKQFLLYAYWIGLGILSSVGLGTGLHTFLLYLGPHIASVTLAAYECNSVNFPEPPYPDQIICPDEEGTEGTISLWSIISKVRIEACMWGIGTAIGELPPYFMARAARLSGAEPDDEEYQEFEEMLEHAESAQDFASRAKLAVQKLVQKVGFFGILASASIPNPLFDLAGITSGHFLVPFWTFFGATLIGKAIIKMHIQKIFVIITFSKHIVEQMVAFIGAVPGIGPSLQKPFQEYLEAQRQKLHHKSEMGTPQGENWLSWMFEKLVVVMVCYFILSIINSMAQSYAKRIQQRLNSEEKTK |
